# In US20250154193A1, “STEROID COMPOUND, AND PREPARATION METHOD THEREFOR AND APPLICATION THEREOF” (CHOLESGEN (SHANGHAI) CO., LTD., priority 2022, published 2025):
# At least one compound was matched to its structure with a doubt left.
# Tested on: liver organoids
# Assay: Nile Red and αSMA immunofluorescence staining of fatty liver organoids
# Type: cell-based, mice
# Details: mouse fatty liver organoids, 1 and 3 μM, 72 hours
# Method: C57BL/6N mice were fed with fatty liver-inducing diet (TrophicDiet, TP2630052A, containing 10.2% kcal protein, 37.3% kcal carbohydrate, and 52.6% kcal fat) and fructose-containing drinking water (23.1 g of fructose and 18.9 g of dextrose were dissolved in 1 L of water, then filtered and sterilized) for a total of 16 weeks starting at 12 weeks of age to generate a fatty liver model. To generate fatty liver organoids, liver tissues from mice with fatty liver were minced and digested in digestion buffer at 37° C. for 30 to 60 minutes. The digestion buffer included DMEM/F-12 (Cytiva, SH30023.01), 2.5 mg/mL collagenase D (Roche, COLLD-RO), and 0.1 mg/mL DNaseI (Sigma-Aldrich, DN25). Isolated single hepatocytes were filtered through a 70 μm filter membrane and washed once. Cells were collected by centrifugation, and resuspended in a mixture of culture medium and basement membrane extract (BME) (R&D Systems, 3533-010-02) at a ratio of 1:3. […]
# In FIGS. 35 and 36, data are represented as mean±standard deviation. P values were calculated using one-way ANOVA; ns indicates no statistical difference; * indicates P<0.05; ** indicates P<0.01; *** indicates P<0.001. In FIGS. 47 and 53, quantitative analysis was performed using ImageJ software. […] P values were calculated using one-way ANOVA; * indicates P<0.05; ** indicates P<0.01; *** indicates P<0.001.
smiles,measurement,value
"CC[C@H]1[C@@H](O)[C@@H]2[C@H](CC[C@]3(C)[C@@H]([C@H](C)CCC(=O)O)CC[C@@H]23)[C@@]2(C)CC[C@@H](O)C[C@@H]12 [obeticholic acid, Obeticholic acid, reference compound]",lipid accumulation in organoids (Nile Red staining),reduced
